Results as given in publication doi:10.1101/2024.02.01.578400.
No constants are given. Whether binding was seen depends on the method and setting. For some assays here: Binding seen in cells or lysates may run through a third protein. Some entries that bind do so weakly or less than the wild type. Where a sequence is shown, tags or fusion partners need not be part of it.

Legend:
[1] = biological target: ATHB2 (full-length class II HD-ZIP transcription factor), GAL4 fusion (Arabidopsis thaliana) (UniProt Q05466); assay: two-hybrid
[2] = biological target: ATHB2 fused to eGFP or mCherry, expressed in Nicotiana benthamiana leaves (Arabidopsis thaliana) (UniProt Q05466); assay: FRET or BRET

B1: ATHB2 (full-length class II HD-ZIP transcription factor), GAL4 fusion (protein, UniProt Q05466 1-284)
chain: MMFEKDDLGLSLGLNFPKKQINLKSNPSVSVTPSSSSFGLFRRSSWNESFTSSVPNSDSSQKETRTFIRGIDVNRPPSTAEYGDEDAGVSSPNSTVSSSTGKRSEREEDTDPQGSRGISDDEDGDNSRKKLRLSKDQSAILEETFKDHSTLNPKQKQALAKQLGLRARQVEVWFQNRRARTKLKQTEVDCEFLRRCCENLTEENRRLQKEVTELRALKLSPQFYMHMSPPTTLTMCPSCEHVSVPPPQPQAATSAHHRSLPVNAWAPATRISHGLTFDALRPRS
- binding [1]: binds

B2: ATHB2 fused to eGFP or mCherry, expressed in Nicotiana benthamiana leaves (protein, UniProt Q05466 1-284)
chain: MMFEKDDLGLSLGLNFPKKQINLKSNPSVSVTPSSSSFGLFRRSSWNESFTSSVPNSDSSQKETRTFIRGIDVNRPPSTAEYGDEDAGVSSPNSTVSSSTGKRSEREEDTDPQGSRGISDDEDGDNSRKKLRLSKDQSAILEETFKDHSTLNPKQKQALAKQLGLRARQVEVWFQNRRARTKLKQTEVDCEFLRRCCENLTEENRRLQKEVTELRALKLSPQFYMHMSPPTTLTMCPSCEHVSVPPPQPQAATSAHHRSLPVNAWAPATRISHGLTFDALRPRS
- binding [2]: binds
